PubChem BioAssay AID1259405 | NCATS | 2018
Here is an unselected part of about 50,000 reagents. Of all reagents, about 4,000 (8%) were called active. 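Mouse siRNA library applied to hamster cells; one well for each siRNA.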 Unmarked entries are inactive. The numbers tell different reagents against one gene apart.

- Aim: 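Knock-downs that lift recombinant protein yield in hamster ovary cells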 (primary screen)
- Cells: Chinese hamster CHO-K1 ovary cells with stable secreted eGFP expression
- Knock-down reagent: single siRNA against mouse genes, 0.8 pmol siRNA per well (2 µl of 400 nM stock)
- Timing: 3 days
- Detection: 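Per-well intracellular GFP measured by laser scanning cytometry, plus viability from ATP luminescence, each relative to plate median of non-targeting control wells, in %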
- Scale: GFP, % of control: higher = more GFP per well, higher productivity; viability (ATP), % of control: higher = more viable cells (more ATP)
- Rule for the call: 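a knock-down is called active if GFP reaches 120% or more of non-targeting control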

gene symbol | reagent no. | GFP, % of control | viability (ATP), % of control
Rcn3 | 1 | 124 (active) | 136
Rcn3 | 2 | 74.2 | 69
Dtx3l | 1 | 58.9 | 37.7
Dtx3l | 2 | 59.7 | 76.7
Rala | 1 | 132 (active) | 128
Rala | 2 | 164 (active) | 101
Rala | 3 | 58.3 | 60.4
Rala | 4 | 76 | 107
Rala | 5 | 94 | 102
Rala | 6 | 77 | 95.9
Ctrc | 1 | 102 | 101
Ctrc | 2 | 50.8 | 59.2
Ctrc | 3 | 45.2 | 54.3
Lsp1 | 1 | 81.1 | 66.2
Lsp1 | 2 | 47.1 | 42.7
Lsp1 | 3 | 155 (active) | 68.1
Trim17 | 1 | 71.9 | 65.5
Trim17 | 2 | 50.8 | 51.7
Trim17 | 3 | 52.9 | 73.4
Jaml | 1 | 85 | 64.6
Jaml | 2 | 66.5 | 70.7
Jaml | 3 | 46 | 74.7
Akr1c20 | 1 | 148 (active) | 107
Akr1c20 | 2 | 125 (active) | 133
Akr1c20 | 3 | 93.7 | 83.5
Larp7 | 1 | 88.6 | 104
Larp7 | 2 | 71.9 | 80.3
Larp7 | 3 | 154 (active) | 98.1
Larp7 | 4 | 103 | 96.9
Larp7 | 5 | 80 | 62.1
Larp7 | 6 | 81.3 | 64
Slc25a41 | 1 | 198 (active) | 92.2
Slc25a41 | 2 | 74.1 | 83.8
Slc25a41 | 3 | 60 | 42.7
Slc25a41 | 4 | 130 (active) | 84.9
Slc25a41 | 5 | 120 (active) | 118
Slc25a41 | 6 | 115 | 87.6

A few values from above:
Result for Slc25a41 #5 in “viability (ATP), % of control”: 118 (active)
For “viability (ATP), % of control”, Dtx3l #2 has 76.7
Result of Rala #1 under “viability (ATP), % of control”: 128 (active)
Under “viability (ATP), % of control”, Trim17 #3 shows 73.4
For “viability (ATP), % of control”, Rcn3 #1 shows 136 (active)
